A short description of the series: Battery performance test, salt cavern organic aqueous redox flow battery, single battery stack. The settings on record: current density 10 mA/cm^2; 0.5 mol/L catholyte; OH-TEMPO 0.5 mol/L anolyte; 2 mol/L NaCl; cation exchange membrane.

For `C[N+](C)(C)CCCOc1cccc2c1C(=O)c1c(OCCC[N+](C)(C)C)cccc1C2=O` [Embodiment 1], the Coulombic efficiency amounted to 99%, the energy efficiency was 88% and the voltage efficiency is on record as 88%.
